# From article doi:10.1101/326512
# Amino acid sequences for entries named in this document (tags omitted). Residues count along the entry.
# UniProt P04202, residues 30-390: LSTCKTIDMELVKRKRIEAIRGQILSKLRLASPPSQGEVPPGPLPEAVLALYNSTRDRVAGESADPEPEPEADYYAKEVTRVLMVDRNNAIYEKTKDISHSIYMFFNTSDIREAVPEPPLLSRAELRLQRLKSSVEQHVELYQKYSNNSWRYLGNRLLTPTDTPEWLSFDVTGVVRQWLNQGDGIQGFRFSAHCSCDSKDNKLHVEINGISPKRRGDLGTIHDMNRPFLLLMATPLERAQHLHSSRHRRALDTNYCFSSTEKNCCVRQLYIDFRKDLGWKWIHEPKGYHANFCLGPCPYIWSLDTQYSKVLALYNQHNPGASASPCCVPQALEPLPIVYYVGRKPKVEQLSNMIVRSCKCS
# UniProt Q9UNE7: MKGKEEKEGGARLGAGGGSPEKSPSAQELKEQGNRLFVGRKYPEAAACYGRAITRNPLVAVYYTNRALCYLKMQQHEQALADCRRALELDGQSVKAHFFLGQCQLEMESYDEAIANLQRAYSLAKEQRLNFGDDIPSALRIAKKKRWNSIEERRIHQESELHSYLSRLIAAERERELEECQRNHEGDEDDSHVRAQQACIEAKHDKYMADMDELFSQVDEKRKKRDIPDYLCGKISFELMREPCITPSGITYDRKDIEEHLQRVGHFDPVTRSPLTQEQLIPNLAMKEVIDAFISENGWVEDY
# UniProt P11021, residues 19-654: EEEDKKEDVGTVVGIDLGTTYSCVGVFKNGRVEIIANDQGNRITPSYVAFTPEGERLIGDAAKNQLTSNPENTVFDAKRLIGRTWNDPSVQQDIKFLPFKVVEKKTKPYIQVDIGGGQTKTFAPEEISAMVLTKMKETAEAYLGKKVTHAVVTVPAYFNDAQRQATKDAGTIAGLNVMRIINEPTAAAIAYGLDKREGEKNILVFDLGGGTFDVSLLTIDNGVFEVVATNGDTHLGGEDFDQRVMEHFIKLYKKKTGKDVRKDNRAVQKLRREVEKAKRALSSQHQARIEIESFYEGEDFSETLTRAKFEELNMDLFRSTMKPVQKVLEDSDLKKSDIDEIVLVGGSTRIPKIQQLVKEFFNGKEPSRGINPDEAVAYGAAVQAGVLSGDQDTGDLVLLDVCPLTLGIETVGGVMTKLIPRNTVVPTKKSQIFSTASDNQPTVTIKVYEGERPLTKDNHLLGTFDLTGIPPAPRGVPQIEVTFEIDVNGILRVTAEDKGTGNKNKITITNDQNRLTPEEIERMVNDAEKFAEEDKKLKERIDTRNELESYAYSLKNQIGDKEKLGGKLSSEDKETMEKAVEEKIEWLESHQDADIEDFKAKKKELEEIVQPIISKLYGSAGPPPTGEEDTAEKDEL
# UniProt Q9NYU2, residues 43-1555: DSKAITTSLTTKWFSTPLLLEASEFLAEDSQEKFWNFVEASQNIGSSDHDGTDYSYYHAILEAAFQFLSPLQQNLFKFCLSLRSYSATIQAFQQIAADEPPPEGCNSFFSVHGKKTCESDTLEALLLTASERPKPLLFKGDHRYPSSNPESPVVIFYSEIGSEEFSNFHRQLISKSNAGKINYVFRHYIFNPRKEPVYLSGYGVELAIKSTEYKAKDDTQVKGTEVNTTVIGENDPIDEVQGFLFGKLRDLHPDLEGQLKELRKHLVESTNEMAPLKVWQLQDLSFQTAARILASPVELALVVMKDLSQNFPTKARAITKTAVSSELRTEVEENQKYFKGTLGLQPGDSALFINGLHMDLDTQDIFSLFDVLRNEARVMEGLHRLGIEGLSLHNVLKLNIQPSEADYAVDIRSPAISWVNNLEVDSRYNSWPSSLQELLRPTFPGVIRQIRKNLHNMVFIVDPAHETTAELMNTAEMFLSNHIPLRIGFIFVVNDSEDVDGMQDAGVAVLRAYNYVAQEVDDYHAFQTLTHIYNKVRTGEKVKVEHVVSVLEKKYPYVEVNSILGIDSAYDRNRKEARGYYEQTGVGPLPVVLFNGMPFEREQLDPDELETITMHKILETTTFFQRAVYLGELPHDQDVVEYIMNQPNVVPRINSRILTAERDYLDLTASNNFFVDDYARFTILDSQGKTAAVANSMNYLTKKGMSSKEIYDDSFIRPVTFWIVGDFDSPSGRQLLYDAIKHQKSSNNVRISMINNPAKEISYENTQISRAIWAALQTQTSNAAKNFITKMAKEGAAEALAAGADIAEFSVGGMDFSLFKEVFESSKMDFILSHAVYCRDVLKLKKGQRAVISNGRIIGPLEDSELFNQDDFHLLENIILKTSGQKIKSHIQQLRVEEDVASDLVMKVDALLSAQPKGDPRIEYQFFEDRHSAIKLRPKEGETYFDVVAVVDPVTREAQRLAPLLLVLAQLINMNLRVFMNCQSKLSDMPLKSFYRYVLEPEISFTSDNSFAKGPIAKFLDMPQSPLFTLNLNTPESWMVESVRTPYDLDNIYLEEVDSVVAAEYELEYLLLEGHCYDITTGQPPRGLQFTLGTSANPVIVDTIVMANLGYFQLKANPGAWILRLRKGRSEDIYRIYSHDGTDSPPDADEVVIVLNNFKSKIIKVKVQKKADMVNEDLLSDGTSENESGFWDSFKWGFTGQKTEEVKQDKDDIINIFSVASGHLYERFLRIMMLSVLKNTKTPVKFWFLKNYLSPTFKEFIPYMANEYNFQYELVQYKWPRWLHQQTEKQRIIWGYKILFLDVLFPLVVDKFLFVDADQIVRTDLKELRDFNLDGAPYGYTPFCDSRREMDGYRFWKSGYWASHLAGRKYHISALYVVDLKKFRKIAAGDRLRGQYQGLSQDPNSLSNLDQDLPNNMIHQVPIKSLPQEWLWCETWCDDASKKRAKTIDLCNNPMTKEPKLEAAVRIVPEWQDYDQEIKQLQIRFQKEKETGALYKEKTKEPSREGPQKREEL
# Read-outs that look alike come from different tables or passages of the source. Results are given in words; binding and its absence hold for the method and conditions named. In cells and extracts the contact can be indirect. Some binding calls cover weakened binding; strength is not graded here. Where a sequence is shown, tags or fusion partners need not be part of it.
# T1: NRROS^nFlag overexpressed in HEK293T cells (mouse) (UniProt Q8BMT4)
# T1 sequence: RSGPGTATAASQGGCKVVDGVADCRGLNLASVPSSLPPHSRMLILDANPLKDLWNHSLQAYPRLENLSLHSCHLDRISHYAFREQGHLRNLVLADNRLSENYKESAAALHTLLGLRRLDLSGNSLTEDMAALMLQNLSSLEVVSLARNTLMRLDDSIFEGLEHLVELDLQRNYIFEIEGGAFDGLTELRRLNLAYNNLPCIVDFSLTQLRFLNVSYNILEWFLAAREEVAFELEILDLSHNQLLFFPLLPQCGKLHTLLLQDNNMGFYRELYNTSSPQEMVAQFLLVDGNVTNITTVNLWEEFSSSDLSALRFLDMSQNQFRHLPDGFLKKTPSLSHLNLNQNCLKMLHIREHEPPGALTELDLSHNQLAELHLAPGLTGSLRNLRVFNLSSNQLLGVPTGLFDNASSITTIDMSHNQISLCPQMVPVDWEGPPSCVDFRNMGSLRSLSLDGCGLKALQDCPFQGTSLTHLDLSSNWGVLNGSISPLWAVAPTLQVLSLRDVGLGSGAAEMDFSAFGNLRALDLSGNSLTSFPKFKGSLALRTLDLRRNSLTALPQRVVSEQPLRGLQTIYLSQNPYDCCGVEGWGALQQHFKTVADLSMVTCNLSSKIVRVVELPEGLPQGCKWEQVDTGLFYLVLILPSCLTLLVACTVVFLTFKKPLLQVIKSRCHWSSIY
# T2: NRROS^LAP (C-terminus LAP-tagged NRROS), stable in RAW 264.7 cells (mouse) (UniProt Q8BMT4)
# T2 sequence: T1 sequence
# B1: calnexin (endogenous, RAW 264.7) (protein, UniProt P35564 21-591)
# chain: HDGHDDDAIDIEDDLDDVIEEVEDSKSKSDASTPPSPKVTYKAPVPTGEVYFADSFDRGSLSGWILSKAKKDDTDDEIAKYDGKWEVDEMKETKLPGDKGLVLMSRAKHHAISAKLNKPFLFDTKPLIVQYEVNFQNGIECGGAYVKLLSKTAELSLDQFHDKTPYTIMFGPDKCGEDYKLHFIFRHKNPKTGVYEEKHAKRPDADLKTYFTDKKTHLYTLILNPDNSFEILVDQSVVNSGNLLNDMTPPVNPSREIEDPEDRKPEDWDERPKIADPDAVKPDDWDEDAPSKIPDEEATKPEGWLDDEPEYIPDPDAEKPEDWDEDMDGEWEAPQIANPKCESAPGCGVWQRPMIDNPNYKGKWKPPMIDNPNYQGIWKPRKIPNPDFFEDLEPFKMTPFSAIGLELWSMTSDIFFDNFIISGDRRVVDDWANDGWGLKKAADGAAEPGVVLQMLEAAEERPWLWVVYILTVALPVFLVILFCCSGKKQSNAMEYKKTDAPQPDVKDEEGKEEEKNKRDEEEEEEKLEEKQKSDAEEDGVTGSQDEEDSKPKAEEDEILNRSPRNRKPRRE
# B2: calnexin (HEK293T) (protein, UniProt P27824 21-592)
# chain: HDGHDDDVIDIEDDLDDVIEEVEDSKPDTTAPPSSPKVTYKAPVPTGEVYFADSFDRGTLSGWILSKAKKDDTDDEIAKYDGKWEVEEMKESKLPGDKGLVLMSRAKHHAISAKLNKPFLFDTKPLIVQYEVNFQNGIECGGAYVKLLSKTPELNLDQFHDKTPYTIMFGPDKCGEDYKLHFIFRHKNPKTGIYEEKHAKRPDADLKTYFTDKKTHLYTLILNPDNSFEILVDQSVVNSGNLLNDMTPPVNPSREIEDPEDRKPEDWDERPKIPDPEAVKPDDWDEDAPAKIPDEEATKPEGWLDDEPEYVPDPDAEKPEDWDEDMDGEWEAPQIANPRCESAPGCGVWQRPVIDNPNYKGKWKPPMIDNPSYQGIWKPRKIPNPDFFEDLEPFRMTPFSAIGLELWSMTSDIFFDNFIICADRRIVDDWANDGWGLKKAADGAAEPGVVGQMIEAAEERPWLWVVYILTVALPVFLVILFCCSGKKQTSGMEYKKTDAPQPDVKEEEEEKEEEKDKGDEEEEGEEKLEEKQKSDAEEDGGTVSQEEEDRKPKAEEDEILNRSPRNRKPRRE
# B3: EDEM1 (ER degradation-enhancing alpha-mannosidase-like protein 1) in HEK293T cells (protein, UniProt Q92611 1-657)
# chain: MQWRALVLGLVLLRLGLHGVLWLVFGLGPSMGFYQRFPLSFGFQRLRSPDGPASPTSGPVGRPGGVSGPSWLQPPGTGAAQSPRKAPRRPGPGMCGPANWGYVLGGRGRGPDEYEKRYSGAFPPQLRAQMRDLARGMFVFGYDNYMAHAFPQDELNPIHCRGRGPDRGDPSNLNINDVLGNYSLTLVDALDTLAIMGNSSEFQKAVKLVINTVSFDKDSTVQVFEATIRVLGSLLSAHRIITDSKQPFGDMTIKDYDNELLYMAHDLAVRLLPAFENTKTGIPYPRVNLKTGVPPDTNNETCTAGAGSLLVEFGILSRLLGDSTFEWVARRAVKALWNLRSNDTGLLGNVVNIQTGHWVGKQSGLGAGLDSFYEYLLKSYILFGEKEDLEMFNAAYQSIQNYLRRGREACNEGEGDPPLYVNVNMFSGQLMNTWIDSLQAFFPGLQVLIGDVEDAICLHAFYYAIWKRYGALPERYNWQLQAPDVLFYPLRPELVESTYLLYQATKNPFYLHVGMDILQSLEKYTKVKCGYATLHHVIDKSTEDRMESFFLSETCKYLYLLFDEDNPVHKSGTRYMFTTEGHIVSVDEHLRELPWKEFFSEEGGQDQGGKSVHRPKPHELKVINSSSNCNRVPDERRYSLPLKSIYMRQIDQMVGLI
# B4: NOX2 (gp91^phox) overexpressed in HEK293T cells (protein, UniProt Q61093 1-570)
# chain: MGNWAVNEGLSIFVILVWLGLNVFLFINYYKVYDDGPKYNYTRKLLGSALALARAPAACLNFNCMLILLPVCRNLLSFLRGSSACCSTRIRRQLDRNLTFHKMVAWMIALHTAIHTIAHLFNVEWCVNARVGISDRYSIALSDIGDNENEEYLNFAREKIKNPEGGLYVAVTRLAGITGIVITLCLILIITSSTKTIRRSYFEVFWYTHHLFVIFFIGLAIHGAERIVRGQTAESLEEHNLDICADKIEEWGKIKECPVPKFAGNPPMTWKWIVGPMFLYLCERLVRFWRSQQKVVITKVVTHPFKTIELQMKKKGFKMEVGQYIFVKCPKVSKLEWHPFTLTSAPEEDFFSIHIRIVGDWTEGLFNACGCDKQEFQDAWKLPKIAVDGPFGTASEDVFSYEVVMLVGAGIGVTPFASILKSVWYKYCDNATSLKLKKIYFYWLCRDTHAFEWFADLLQLLETQMQERNNANFLSYNIYLTGWDESQANHFAVHHDEEKDVITGLKQKTLYGRPNWDNEFKTIASEHPNTTIGVFLCGPEALAETLSKQSISNSESGPRGVHFIFNKENF
# What was measured:
# Assay in all cases: co-IP
# [1] = biological target: T1, NRROS^nFlag overexpressed in HEK293T cells (mouse)
# [2] = biological target: T2, NRROS^LAP (C-terminus LAP-tagged NRROS), stable in RAW 264.7 cells (mouse)
# [3] = biological target: T1, NRROS^nFlag overexpressed in HEK293T cells (mouse); remark: listed apart in the source
# [4] = biological target: T1, NRROS^nFlag overexpressed in HEK293T cells (mouse); remark: listed apart in the source
molecule,measurement,setting,value
TGFβ1^HA (mouse TGFβ1 with HA tag at the C-terminus) (from UniProt P04202 30-390),binding,[1],binds
CHIP (HEK293T) (from UniProt Q9UNE7 1-303),binding,[1],no binding
Bip (HEK293T) (from UniProt P11021 19-654),binding,[1],binds
UGGT1 (HEK293T) (from UniProt Q9NYU2 43-1555),binding,[1],binds
B1,binding,[2],binds
B2,binding,[3],binds
same,binding,[4],binds
B3,binding,[4],binds
B4,binding,[3],binds
